Tested on: T1, bovine complex I
T1 construct: Complex I for cryo-EM analyses was prepared by a method adapted from that of Jones et al; tissue C; Humphreys and Sons, Chelmsford, U.K. (abattoir); host or cells: bovine heart mitochondria (two hearts), DDM-solubilized, Q-Sepharose and Superose 6 Increase 10/300
Test: Cryo-EM of purified complex I with 350 μM IM1092
Type: binding
Settings: for population with clear evidence of IM1092 occupying the Q-channel: 350 μM IM1092

Structure (SMILES): N=C(N=C(N)N)NCCc1ccc(I)c(Cl)c1 [IM1092]
- imaged protein population disrupted at the ND5/NDUFB4 interface (350 μM IM1092, all classes): ~ 65%
- population with clear evidence of IM1092 occupying the Q-channel (of the [deactive and slack] population): 56-75%
- population with clear evidence of IM1092 occupying the Q-channel (of the total population): 45-60%

— article PMC7614227, “Structural Basis of Mammalian Respiratory Complex I Inhibition by Medicinal Biguanides” (Science (New York, N.Y.), 2023)
